Results: patent US10815276B2, “Cell penetrating peptides and methods of making and using thereof” (Entrada Therapeutics, Inc., priority 2014, dated 2020)
Part of at least one peptide drawing is inferred or uncertain, most often the ends. Starred links: 1 amine or outer side, 2 acyl side, 3 side chain; linkers in the order of their positions; H or OH if unused. Positions of bridges follow the written chain, without caps; N, C: chain ends. Non-standard residues stand in square brackets, D forms with d. Residues, ends and D or L forms follow the SMILES beside them. Trimesoyl = O=C(c1cc(C(=O)[*:2])cc(C(=O)[*:3])c1)[*:1]; F2Pmp = N[C@@H](Cc1ccc(C(F)(F)P(=O)(O)O)cc1)C(=O)O; 2Nal = N[C@@H](Cc1ccc2ccccc2c1)C(=O)O; Dap = NC[C@H](N)C(=O)O

Chains of the proteins cited; added tags and fusions are not shown. Lines headed by an entry give the natural chain unless they say otherwise; changes in a name come on top.
UniProt P29350: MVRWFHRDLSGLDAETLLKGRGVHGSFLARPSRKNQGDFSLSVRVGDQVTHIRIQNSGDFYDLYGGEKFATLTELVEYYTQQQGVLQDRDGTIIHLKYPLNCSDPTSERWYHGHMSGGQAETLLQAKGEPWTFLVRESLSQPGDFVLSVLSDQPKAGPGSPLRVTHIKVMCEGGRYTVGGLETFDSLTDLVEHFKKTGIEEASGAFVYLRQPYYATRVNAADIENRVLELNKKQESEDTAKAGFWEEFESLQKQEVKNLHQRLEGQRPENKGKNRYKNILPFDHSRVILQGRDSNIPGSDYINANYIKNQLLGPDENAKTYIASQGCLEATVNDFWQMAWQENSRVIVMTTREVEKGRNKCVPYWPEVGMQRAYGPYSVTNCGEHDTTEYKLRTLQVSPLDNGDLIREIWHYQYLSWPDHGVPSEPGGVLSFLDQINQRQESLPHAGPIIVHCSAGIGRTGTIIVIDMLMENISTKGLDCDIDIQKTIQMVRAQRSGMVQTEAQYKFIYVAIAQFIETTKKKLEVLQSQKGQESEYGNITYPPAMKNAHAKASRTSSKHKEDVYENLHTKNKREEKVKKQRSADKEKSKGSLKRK

Experiments:
Assay in all cases: PTP inhibition assay (pNPP)
Type in all cases: biochemical
[1] = target: T1, PTPH1 (Homo sapiens, UniProt P26045)
T1 sequence (P26045 1-913): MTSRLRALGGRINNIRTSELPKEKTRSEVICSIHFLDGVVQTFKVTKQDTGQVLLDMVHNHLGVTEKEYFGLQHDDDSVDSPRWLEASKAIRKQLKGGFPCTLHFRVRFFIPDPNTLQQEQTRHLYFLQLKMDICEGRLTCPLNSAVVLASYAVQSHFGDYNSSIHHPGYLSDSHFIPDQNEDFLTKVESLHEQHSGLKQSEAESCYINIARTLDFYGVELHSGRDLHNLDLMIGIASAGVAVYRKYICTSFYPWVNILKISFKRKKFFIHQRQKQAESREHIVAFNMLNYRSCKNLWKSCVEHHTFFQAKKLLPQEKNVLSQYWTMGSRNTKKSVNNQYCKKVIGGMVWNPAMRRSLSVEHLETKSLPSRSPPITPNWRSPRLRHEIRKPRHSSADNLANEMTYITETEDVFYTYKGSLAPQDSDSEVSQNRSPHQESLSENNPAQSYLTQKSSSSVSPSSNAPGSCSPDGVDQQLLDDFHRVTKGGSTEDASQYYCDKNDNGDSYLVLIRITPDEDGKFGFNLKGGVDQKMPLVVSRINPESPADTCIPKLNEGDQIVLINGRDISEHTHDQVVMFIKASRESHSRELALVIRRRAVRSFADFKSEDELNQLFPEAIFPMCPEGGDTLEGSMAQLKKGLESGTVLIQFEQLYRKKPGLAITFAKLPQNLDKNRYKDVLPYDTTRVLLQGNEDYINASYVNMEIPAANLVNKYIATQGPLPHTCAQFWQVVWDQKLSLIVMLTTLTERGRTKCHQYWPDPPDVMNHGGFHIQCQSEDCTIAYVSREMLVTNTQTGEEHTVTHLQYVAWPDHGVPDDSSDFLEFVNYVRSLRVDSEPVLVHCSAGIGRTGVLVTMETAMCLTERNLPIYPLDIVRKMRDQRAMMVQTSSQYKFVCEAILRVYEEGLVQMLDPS
Description: (§1) PTP assays were performed in a quartz microcuvette (total volume 150 μL). The reaction mixture contains 100 mM Tris-HCl, pH 7.4, 50 mM NaCl, 2 mM EDTA, 1 mM TCEP, 0-1 μM of PTP inhibitor, and 500 μM para-nitrophenyl phosphate (pNPP). The enzymatic reaction was initiated by the addition of PTP (final concentration 15-75 nM) and monitored continuously at 405 nm on a UV-VIS spectrophotometer. Initial rates were calculated from the reaction progress curves (typically <60 s). The half-maximal inhibition constant (IC50) was defined as the concentration of an inhibitor that reduced the enzyme activity to 50% and was obtained by plotting the rates (V) against the inhibitor concentration [I] and fitting the data against the equation

[2] = target: T2, HePTP (Homo sapiens, UniProt P35236)
T2 sequence (P35236 1-360): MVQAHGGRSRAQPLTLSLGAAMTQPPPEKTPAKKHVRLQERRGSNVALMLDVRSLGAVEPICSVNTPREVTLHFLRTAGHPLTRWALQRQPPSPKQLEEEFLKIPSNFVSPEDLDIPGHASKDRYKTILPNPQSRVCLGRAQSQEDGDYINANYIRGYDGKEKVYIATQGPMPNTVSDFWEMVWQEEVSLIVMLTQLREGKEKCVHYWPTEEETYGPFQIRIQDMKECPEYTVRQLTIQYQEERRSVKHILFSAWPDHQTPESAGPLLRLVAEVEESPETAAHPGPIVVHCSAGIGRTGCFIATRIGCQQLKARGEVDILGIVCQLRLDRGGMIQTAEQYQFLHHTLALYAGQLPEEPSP
Description: as §1

[3] = target: SHP1 (Homo sapiens, UniProt P29350)
Description: as §1

Measured: IC50

CC(C)[C@H]1NC(=O)[C@H](CO)NC(=O)c2cc3cc(c2)C(=O)NC[C@H](NC(=O)[C@H](Cc2c[nH]cn2)NC(=O)[C@H](Cc2ccc(C(F)(F)P(=O)(O)O)cc2)NC(=O)[C@@H]2CCCN2C1=O)C(=O)N[C@@H](CCCNC(=N)N)C(=O)N[C@@H](CCCNC(=N)N)C(=O)N[C@@H](CCCNC(=N)N)C(=O)N[C@@H](CCCNC(=N)N)C(=O)N[C@@H](Cc1ccc2ccccc2c1)C(=O)N[C@@H](Cc1ccccc1)C(=O)N[C@H](C(=O)N[C@@H](CCCCN)C(N)=O)CNC3=O [Bicyclic Inhibitor 4] (S[dV]P[F2Pmp]H[Dap]RRRR[2Nal]F[Dap]K-NH2; linker N-6-13 via Trimesoyl; C-terminus assumed)
> 1 µM: all assays above
